# Measurements as given in PMC7862277.
# Protein sequences, listed by entry. Tags and fused reporters are not part of them. Residues count along the entry.
# UniProt P07355: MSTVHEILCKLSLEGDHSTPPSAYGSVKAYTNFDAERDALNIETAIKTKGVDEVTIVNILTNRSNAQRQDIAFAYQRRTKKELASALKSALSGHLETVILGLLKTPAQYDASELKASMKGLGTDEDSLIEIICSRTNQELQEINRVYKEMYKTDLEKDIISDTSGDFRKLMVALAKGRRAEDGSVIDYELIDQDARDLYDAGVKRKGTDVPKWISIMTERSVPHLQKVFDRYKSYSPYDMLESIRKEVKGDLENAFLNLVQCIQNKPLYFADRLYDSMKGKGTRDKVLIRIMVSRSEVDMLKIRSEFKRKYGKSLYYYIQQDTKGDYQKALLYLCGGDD
# UniProt P19474: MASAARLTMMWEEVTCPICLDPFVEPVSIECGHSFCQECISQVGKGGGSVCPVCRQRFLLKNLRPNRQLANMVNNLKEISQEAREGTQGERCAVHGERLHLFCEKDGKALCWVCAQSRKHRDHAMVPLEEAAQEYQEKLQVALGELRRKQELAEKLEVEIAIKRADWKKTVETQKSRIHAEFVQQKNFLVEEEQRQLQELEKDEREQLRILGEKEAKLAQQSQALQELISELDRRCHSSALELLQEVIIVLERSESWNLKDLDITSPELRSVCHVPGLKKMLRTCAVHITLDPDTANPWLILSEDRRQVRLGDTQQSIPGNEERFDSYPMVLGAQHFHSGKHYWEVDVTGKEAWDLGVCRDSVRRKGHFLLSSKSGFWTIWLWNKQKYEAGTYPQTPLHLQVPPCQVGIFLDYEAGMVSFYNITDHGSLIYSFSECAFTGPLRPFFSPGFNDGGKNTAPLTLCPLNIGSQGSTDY
# UniProt P38646, residues 47-679: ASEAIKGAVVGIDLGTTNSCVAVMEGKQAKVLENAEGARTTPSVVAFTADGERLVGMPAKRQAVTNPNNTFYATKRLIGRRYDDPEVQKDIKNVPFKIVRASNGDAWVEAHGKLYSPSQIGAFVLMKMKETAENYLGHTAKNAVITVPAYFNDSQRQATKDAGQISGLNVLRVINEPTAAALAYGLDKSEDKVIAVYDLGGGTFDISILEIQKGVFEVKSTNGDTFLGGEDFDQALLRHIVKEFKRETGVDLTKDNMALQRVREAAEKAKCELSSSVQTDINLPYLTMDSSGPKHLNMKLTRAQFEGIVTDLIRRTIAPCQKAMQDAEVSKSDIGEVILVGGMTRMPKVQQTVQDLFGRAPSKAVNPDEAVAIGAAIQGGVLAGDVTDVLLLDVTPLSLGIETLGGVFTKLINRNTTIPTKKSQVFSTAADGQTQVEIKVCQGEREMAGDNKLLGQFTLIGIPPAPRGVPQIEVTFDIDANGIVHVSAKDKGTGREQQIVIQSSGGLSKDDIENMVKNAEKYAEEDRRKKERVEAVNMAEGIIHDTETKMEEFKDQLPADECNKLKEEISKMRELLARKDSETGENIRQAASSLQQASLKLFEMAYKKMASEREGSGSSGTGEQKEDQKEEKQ
# UniProt P11021, residues 19-654: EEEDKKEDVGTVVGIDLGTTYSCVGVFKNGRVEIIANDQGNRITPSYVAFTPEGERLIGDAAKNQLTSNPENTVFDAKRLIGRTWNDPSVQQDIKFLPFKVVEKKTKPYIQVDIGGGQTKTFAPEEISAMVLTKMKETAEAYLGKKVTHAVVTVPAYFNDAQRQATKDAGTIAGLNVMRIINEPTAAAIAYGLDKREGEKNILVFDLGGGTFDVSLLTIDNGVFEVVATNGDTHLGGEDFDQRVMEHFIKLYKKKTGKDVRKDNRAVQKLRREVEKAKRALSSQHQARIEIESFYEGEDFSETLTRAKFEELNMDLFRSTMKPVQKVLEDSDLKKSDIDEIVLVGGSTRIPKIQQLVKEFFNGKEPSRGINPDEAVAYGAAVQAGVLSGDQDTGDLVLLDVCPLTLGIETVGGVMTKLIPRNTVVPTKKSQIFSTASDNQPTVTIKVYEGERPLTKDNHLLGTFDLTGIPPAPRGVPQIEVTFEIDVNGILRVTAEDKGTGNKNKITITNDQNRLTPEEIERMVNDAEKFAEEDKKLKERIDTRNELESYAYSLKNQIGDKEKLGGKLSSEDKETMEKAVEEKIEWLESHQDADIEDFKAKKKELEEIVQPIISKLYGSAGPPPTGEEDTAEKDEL
# UniProt P11142: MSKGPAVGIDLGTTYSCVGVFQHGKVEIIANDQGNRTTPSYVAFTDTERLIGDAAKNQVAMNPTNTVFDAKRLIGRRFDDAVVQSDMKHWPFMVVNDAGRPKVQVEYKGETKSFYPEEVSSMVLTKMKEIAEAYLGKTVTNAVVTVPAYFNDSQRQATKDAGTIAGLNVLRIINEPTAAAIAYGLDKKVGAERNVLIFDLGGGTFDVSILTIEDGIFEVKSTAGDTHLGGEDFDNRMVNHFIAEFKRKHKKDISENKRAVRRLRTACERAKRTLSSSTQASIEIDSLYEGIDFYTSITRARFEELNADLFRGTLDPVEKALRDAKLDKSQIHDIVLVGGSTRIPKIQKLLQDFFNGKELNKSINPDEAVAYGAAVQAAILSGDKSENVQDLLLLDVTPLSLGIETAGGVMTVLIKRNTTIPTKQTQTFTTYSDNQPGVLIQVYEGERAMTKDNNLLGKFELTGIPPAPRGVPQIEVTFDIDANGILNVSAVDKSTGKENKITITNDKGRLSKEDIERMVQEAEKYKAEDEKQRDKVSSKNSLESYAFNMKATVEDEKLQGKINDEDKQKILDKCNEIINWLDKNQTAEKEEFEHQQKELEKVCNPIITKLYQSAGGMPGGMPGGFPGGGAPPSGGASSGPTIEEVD
# UniProt P03372: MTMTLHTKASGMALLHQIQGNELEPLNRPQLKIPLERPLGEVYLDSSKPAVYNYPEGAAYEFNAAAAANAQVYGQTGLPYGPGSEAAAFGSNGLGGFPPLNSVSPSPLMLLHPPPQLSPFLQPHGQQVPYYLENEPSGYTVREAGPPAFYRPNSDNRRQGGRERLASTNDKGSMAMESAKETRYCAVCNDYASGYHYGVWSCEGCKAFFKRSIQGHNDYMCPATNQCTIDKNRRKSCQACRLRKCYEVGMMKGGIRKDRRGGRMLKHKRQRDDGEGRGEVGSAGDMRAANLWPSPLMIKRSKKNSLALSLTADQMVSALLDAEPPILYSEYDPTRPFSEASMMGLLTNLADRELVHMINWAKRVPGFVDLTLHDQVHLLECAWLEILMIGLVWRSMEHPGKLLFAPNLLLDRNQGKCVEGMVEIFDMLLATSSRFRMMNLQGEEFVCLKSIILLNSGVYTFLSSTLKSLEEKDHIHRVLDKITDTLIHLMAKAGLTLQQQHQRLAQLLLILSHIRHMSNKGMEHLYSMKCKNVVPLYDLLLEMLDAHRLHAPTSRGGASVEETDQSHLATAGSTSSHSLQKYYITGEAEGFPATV
# UniProt P34932: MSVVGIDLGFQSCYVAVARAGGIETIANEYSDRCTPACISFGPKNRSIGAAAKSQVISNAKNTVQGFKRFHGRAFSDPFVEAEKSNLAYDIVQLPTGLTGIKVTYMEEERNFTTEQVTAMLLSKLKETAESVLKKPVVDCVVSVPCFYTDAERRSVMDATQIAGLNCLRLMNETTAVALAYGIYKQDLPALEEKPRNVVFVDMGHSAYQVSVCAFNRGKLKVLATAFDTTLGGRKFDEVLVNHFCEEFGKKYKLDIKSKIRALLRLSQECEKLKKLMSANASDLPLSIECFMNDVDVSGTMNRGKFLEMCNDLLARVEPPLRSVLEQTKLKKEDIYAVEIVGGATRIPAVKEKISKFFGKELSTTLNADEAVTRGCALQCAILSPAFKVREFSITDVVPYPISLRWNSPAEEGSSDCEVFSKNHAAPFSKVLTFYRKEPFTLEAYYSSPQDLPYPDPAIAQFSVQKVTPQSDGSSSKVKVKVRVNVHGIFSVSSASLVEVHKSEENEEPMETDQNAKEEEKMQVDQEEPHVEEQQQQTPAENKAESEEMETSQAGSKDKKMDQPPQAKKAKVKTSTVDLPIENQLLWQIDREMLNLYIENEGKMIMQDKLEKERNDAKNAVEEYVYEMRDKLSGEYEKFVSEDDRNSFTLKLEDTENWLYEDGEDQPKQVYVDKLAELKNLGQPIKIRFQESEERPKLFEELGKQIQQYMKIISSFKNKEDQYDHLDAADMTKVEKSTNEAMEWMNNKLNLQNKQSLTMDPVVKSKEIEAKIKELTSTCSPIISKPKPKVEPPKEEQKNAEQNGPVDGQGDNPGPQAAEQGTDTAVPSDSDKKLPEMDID
# UniProt P67809: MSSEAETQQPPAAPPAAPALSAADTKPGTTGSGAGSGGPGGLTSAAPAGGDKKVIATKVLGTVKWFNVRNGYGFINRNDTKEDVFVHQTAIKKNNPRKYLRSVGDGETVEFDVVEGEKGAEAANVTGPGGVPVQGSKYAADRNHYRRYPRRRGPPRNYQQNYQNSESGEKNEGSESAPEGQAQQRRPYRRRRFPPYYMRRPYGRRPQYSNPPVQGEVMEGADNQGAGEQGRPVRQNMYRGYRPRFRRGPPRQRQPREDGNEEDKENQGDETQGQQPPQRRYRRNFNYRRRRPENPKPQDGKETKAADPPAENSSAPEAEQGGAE
# No constants are given. Whether binding was seen depends on the method and setting. In cells and extracts the contact can be indirect. These calls come from enrichment with a bait or labelling near it, and not all partners need be listed. Sequences can lack the tags named with a protein.
# T1: FLAG-tagged NUPR1 (human) (UniProt O60356)
# T1 sequence: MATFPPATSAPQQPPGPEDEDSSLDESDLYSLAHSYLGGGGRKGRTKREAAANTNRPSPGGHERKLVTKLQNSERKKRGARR
# B1: S100A9 (protein, UniProt P06702 1-114)
# chain: MTCKMSQLERNIETIINTFHQYSVKLGHPDTLNQGEFKELVRKDLQNFLKKENKNEKVIEHIMEDLDTNADKQLSFEEFIMLMARLTWASHEKMHEGDEGPGHHHKPGLGEGTP
# Target: T1, FLAG-tagged NUPR1 (human)
# Test: affinity purification with mass spectrometry; lysates of MCF-7TamR cells stably expressing FLAG-NUPR1 on anti-FLAG M2 affinity beads, no more than 3 h at 4 °C; eluted with FLAG peptide; SDS-PAGE, silver staining, LC-MS/MS of bands; FLAG empty vector as control
row,binding,Molecule
1,binds,ANXA2 (from UniProt P07355 1-339)
2,binds,TRIM21 (from UniProt P19474 1-475)
3,binds,HSPA9 (from UniProt P38646 47-679)
4,binds,HSPA5 (from UniProt P11021 19-654)
5,binds,HSPA8 (from UniProt P11142 1-646)
6,binds,"ESR1 (estrogen receptor alpha), endogenous (from UniProt P03372 1-595)"
7,binds,HSPA4 (from UniProt P34932 1-840)
8,binds,YBX1 (from UniProt P67809 1-324)
9,binds,B1
